According to article PMC12431657, “Discovery and mechanistic insights of dibenzoylmethane as a broad spectrum inhibitor of coronavirus” (PLOS Pathogens, 2025):
Counter-ions that a name gives are not always drawn. Like-named read-outs stand apart in the source and are kept apart here. The campaign covered roughly 3,300 compounds. About 60 (2%) showed an effect of 50% or more. Some of the results follow.

Test system: HCoV-OC43
Set-up: species or system RD; HTS, protection from HCoV-OC43 induced cell death, luminescent cell viability (CellCounting-Lite 2.0), inhibition rate
Settings: 24 h post infection, 1 h compound pre-incubation, 10 µM, inhibitor

O=C(O)C[C@@H]1C(=O)O[C@H]2[C@H](OC(=O)c3cc(O)c(O)c(O)c3)[C@@H](OC(=O)c3cc(O)c(O)c4c3[C@H]1[C@@H](O)C(=O)O4)[C@H](OC(=O)c1cc(O)c(O)c(O)c1)O[C@@H]2COC(=O)c1cc(O)c(O)c(O)c1 [Chebulinic acid]
OC43 Inhibition rate: -0.1%

C=C1[C@H]2CC[C@@H]3[C@H]2C(C)(C)CCC[C@]13C [(+)-Longifolene]
OC43 Inhibition rate: -0.1%

CC(=O)c1ccc(O)c(C)c1 [4'-Hydroxy-3'-methylacetophenone]
OC43 Inhibition rate: -1.5%

OC[C@H]1NCC[C@@H](O)[C@@H]1O [Fagomine]
OC43 Inhibition rate: -2.4%

O=c1[nH]c(=O)c2nccnc2[nH]1 [Pteridine-2,4(1H,3H)-dione]
OC43 Inhibition rate: 1.8%

CC(=O)c1c(O)c(C)c(O)c(Cc2c(O)c3c(c(C(=O)/C=C/c4ccccc4)c2O)OC(C)(C)C=C3)c1O [Rottlerin]
OC43 Inhibition rate: -5%

CCCCC[C@@H](O)[C@H]1C(=O)O[C@H](C)[C@@H](O)/C=C/C=C/C=C/C=C/C=C(\C)[C@@H](O)[C@H](O)[C@H](O)C[C@H](O)C[C@H](O)C[C@H](O)C[C@H](O)C[C@@H]1O [Lagosin]
OC43 Inhibition rate: 0.1%

CCCCCCCCC=O [Nonanal]
OC43 Inhibition rate: 0.7%

O[C@H]1[C@H]2c3cc4c(cc3CN3CCC(=C[C@@H]1O)[C@H]23)OCO4 [Lycorine]
OC43 Inhibition rate: 60.9%

COc1cc(/C=C/C(=O)OC2[C@H](O)CC(O)(C(=O)O)C[C@H]2O)ccc1O (stereo partly shown) [4-Feruloylquinic acid]
OC43 Inhibition rate: 10.6%

C[C@@H]1O[C@@H](O[C@H]2[C@H](Oc3cc(O)c(C(=O)CCc4ccc(O)cc4)c(O)c3)O[C@H](CO)[C@@H](O)[C@@H]2O)[C@H](O)[C@H](O)[C@H]1O [Naringin Dihydrochalcone]
OC43 Inhibition rate: -0.1%

Cc1cc(O)cc2c1O[C@](C)(CCC[C@H](C)CCC[C@H](C)CCCC(C)C)CC2 [Delta-Tocopherol]
OC43 Inhibition rate: 9.4%

C[C@@H]1CC(=O)c2c(ccc3c2C(=O)c2cccc(O)c2C3=O)C1 [Ochromycinone]
OC43 Inhibition rate: 2.1%

CC(=O)NCCCCNCCCN [N8-Acetylspermidine dihydrochloride]
OC43 Inhibition rate: -1%

C=C1C(=O)O[C@@H]2C[C@@]3(C)CCC[C@H](C)C3=C[C@H]12 [Alantolactone]
OC43 Inhibition rate: -14.1%

O=CN1C[C@@H]2C[C@H](C1)c1cccc(=O)n1C2 [N-Formylcytisine]
OC43 Inhibition rate: -0.5%

c1c2c(cc3c1OCO3)-c1cc3ccc4c(c3c[n+]1CC2)OCO4 [Coptisine (Sulfate)]
OC43 Inhibition rate (OC43 Inhibition rate, 24 h): -0.1%

NCc1c[nH]c2ccccc12 [Indole-3-methanamine]
OC43 Inhibition rate: 7%

Oc1cc(O)cc(/C=C/c2ccc(O)cc2O)c1 [Oxyresveratrol]
OC43 Inhibition rate: 0.3%

O=c1oc2cc(O)ccc2c2oc3cc(O)ccc3c12 [Coumestrol]
OC43 Inhibition rate: 0.2%

CN[C@H](CC(C)C)C(=O)N[C@H]1C(=O)N[C@@H](CC(N)=O)C(=O)N[C@H]2C(=O)N[C@H]3C(=O)N[C@H](C(=O)N[C@H](C(=O)O)c4cc(O)cc(O)c4-c4cc3ccc4O)[C@H](O)c3ccc(c(Cl)c3)Oc3cc2cc(c3O[C@@H]2O[C@H](CO)[C@@H](O)[C@H](O)[C@H]2O[C@H]2C[C@](C)(N)[C@H](O)[C@H](C)O2)Oc2ccc(cc2Cl)[C@H]1O [Vancomycin]
OC43 Inhibition rate (OC43 Inhibition rate, 24 h): 0.1%

O=c1c(O)c(-c2ccc(O)c(O)c2)oc2cc(O)c(O)c(O)c12 [Quercetagetin]
OC43 Inhibition rate: 2%

COc1ccc(C(=O)/C=C/c2ccccc2)cc1 [4'-Methoxychalcone]
OC43 Inhibition rate: -2.1%

COC1=C2C[C@@H](C)C[C@H](OC)[C@H](O)[C@@H](C)/C=C(\C)[C@H](OC(N)=O)[C@@H](OC)/C=C\C=C(/C)C(=O)NC(=CC1=O)C2=O [Geldanamycin]
OC43 Inhibition rate: -1.7%

C[C@@H]1CC[C@@H]2O[C@@]23C(=O)C(=O)[C@@H]2[C@@H](C2(C)C)[C@@]13C [Kanshone C]
OC43 Inhibition rate: 5.9%

Nc1[nH]cnc2ncnc1-2 [Adenine monohydrochloride hemihydrate]
OC43 Inhibition rate (OC43 Inhibition rate, 24 h): 0%

NCCc1c[nH]cn1 [Histamine (dihydrochloride)]
OC43 Inhibition rate (OC43 Inhibition rate, 24 h): 0%

C[N+]1(C)CCC[C@H]1C(=O)[O-] [Stachydrine]
OC43 Inhibition rate (OC43 Inhibition rate, 24 h): 2.9%

COc1cc2oc(-c3ccc(O)cc3)cc(=O)c2c(O)c1[C@@H]1O[C@H](CO)[C@@H](O)[C@H](O)[C@H]1O[C@@H]1O[C@H](CO)[C@@H](O)[C@H](O)[C@H]1O [Spinosin]
OC43 Inhibition rate: -0.4%

O[C@H]1[C@H](O)[C@H](O)[C@@H](O)[C@H](O)[C@H]1O [D-chiro-Inositol]
OC43 Inhibition rate: -0.1%

CC1(C)C=CC(=O)C1 [4,4-Dimethyl-2-cyclopenten-1-one]
OC43 Inhibition rate: -0.9%

CN1[C@@H](CC(=O)c2ccccc2)CCC[C@H]1C[C@H](O)c1ccccc1 [Lobeline (hydrochloride)]
OC43 Inhibition rate: 40.9%

C=C1C[C@]23C[C@@]1(O)CC[C@H]2[C@@]12C=C[C@H](O)[C@@](C)(C(=O)O1)[C@H]2[C@@H]3C(=O)O [Gibberellic acid]
OC43 Inhibition rate: 0.6%

COc1cc(/C=C/C(=O)O)cc(O)c1O [5-Hydroxyferulic acid]
OC43 Inhibition rate: 2.7%

CC(C)=CCc1c(O[C@@H]2O[C@H](CO)[C@@H](O)[C@H](O)[C@H]2O)cc(O)c2c(=O)c(O[C@@H]3O[C@@H](C)[C@H](O)[C@@H](O)[C@H]3O)c(-c3ccc(O)cc3)oc12 [Epimedoside A]
OC43 Inhibition rate: 1%

CC1=C(CC[C@H](C)CO[C@@H]2O[C@H](CO)[C@@H](O)[C@H](O)[C@H]2O)O[C@H]2C[C@H]3[C@@H]4CC[C@@H]5C[C@@H](O[C@@H]6O[C@H](CO)[C@H](O)[C@H](O)[C@H]6O[C@@H]6O[C@H](CO)[C@@H](O)[C@H](O)[C@H]6O)CC[C@]5(C)[C@H]4CC[C@]3(C)[C@@H]12 [Timosaponin B III]
OC43 Inhibition rate: -1.6%

O=c1c2cc(O)c(O)cc2oc2cc(O)c([C@@H]3O[C@H](CO)[C@@H](O)[C@H](O)[C@H]3O)c(O)c12 [Mangiferin]
OC43 Inhibition rate: -0.4%
